{"sequences": {"note": "The chains behind the UniProt entries cited, without tags or fusion partners.", "UniProt Q61188, whole entry": "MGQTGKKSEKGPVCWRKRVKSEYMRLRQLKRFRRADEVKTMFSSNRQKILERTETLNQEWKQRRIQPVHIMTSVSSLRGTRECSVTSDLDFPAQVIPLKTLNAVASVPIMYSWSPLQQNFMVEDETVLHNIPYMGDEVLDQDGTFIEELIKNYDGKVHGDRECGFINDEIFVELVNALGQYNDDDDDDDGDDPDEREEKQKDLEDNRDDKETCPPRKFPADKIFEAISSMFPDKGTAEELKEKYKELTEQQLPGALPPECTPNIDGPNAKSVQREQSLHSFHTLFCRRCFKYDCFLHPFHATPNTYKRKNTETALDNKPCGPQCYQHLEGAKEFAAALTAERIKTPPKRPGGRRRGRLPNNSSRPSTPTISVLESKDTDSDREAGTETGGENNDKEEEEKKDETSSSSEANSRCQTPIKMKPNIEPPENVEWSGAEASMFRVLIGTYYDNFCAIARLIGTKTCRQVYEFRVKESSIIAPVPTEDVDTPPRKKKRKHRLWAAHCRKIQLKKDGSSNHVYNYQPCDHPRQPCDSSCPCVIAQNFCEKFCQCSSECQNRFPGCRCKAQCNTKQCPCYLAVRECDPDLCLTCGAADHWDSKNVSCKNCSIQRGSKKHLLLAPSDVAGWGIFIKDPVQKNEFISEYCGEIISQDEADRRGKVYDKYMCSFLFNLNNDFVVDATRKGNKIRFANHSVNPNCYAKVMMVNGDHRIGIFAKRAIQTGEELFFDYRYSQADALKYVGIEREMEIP"}, "source": "ChEMBL document CHEMBL5674883", "about": "“The Heterochromatin Landscape in Migrating Cells and the Importance of H3K27me3 for Associated Transcriptome Alterations” (Cells, 2018)", "assay_type_in_all_cases": "cell-based", "key": {"[1]": {"biological_target": "Histone-lysine N-methyltransferase EZH2 (Mus musculus) (UniProt Q61188)", "assay": "Inhibition of EZH2 in mouse B16-F1 migrating cells assessed as fold change in H3K27me3-buffered regulated Atp8b2-mRNA expression at 3 uM measured by ChIP-seq analysis relative to control cells"}, "[2]": {"biological_target": "Histone-lysine N-methyltransferase EZH2 (Mus musculus) (UniProt Q61188)", "assay": "Inhibition of EZH2 in mouse B16-F1 migrating cells assessed as fold change in H3K27me3-buffered regulated Espl1-mRNA expression at 3 uM measured by ChIP-seq analysis relative to control cells"}, "[3]": {"biological_target": "Histone-lysine N-methyltransferase EZH2 (Mus musculus) (UniProt Q61188)", "assay": "Inhibition of EZH2 in mouse B16-F1 migrating cells assessed as fold change in H3K27me3-buffered regulated Cyp26b1-mRNA expression at 3 uM measured by ChIP-seq analysis relative to control cells"}, "[4]": {"biological_target": "Histone-lysine N-methyltransferase EZH2 (Mus musculus) (UniProt Q61188)", "assay": "Inhibition of EZH2 in mouse B16-F1 migrating cells assessed as fold change in H3K27me3-buffered regulated Mtm1-mRNA expression at 3 uM measured by ChIP-seq analysis relative to control cells"}, "[5]": {"biological_target": "Histone-lysine N-methyltransferase EZH2 (Mus musculus) (UniProt Q61188)", "assay": "Inhibition of EZH2 in mouse B16-F1 migrating cells assessed as fold change in H3K27me3-buffered regulated Gm36401-mRNA expression at 3 uM measured by ChIP-seq analysis relative to control cells"}, "[6]": {"biological_target": "Histone-lysine N-methyltransferase EZH2 (Mus musculus) (UniProt Q61188)", "assay": "Inhibition of EZH2 in mouse B16-F1 migrating cells assessed as fold change in H3K27me3-buffered regulated Lbh-mRNA expression at 3 uM measured by ChIP-seq analysis relative to control cells"}, "[7]": {"biological_target": "Histone-lysine N-methyltransferase EZH2 (Mus musculus) (UniProt Q61188)", "assay": "Inhibition of EZH2 in mouse B16-F1 migrating cells assessed as fold change in H3K27me3-buffered regulated Ncapg2-mRNA expression at 3 uM measured by ChIP-seq analysis relative to control cells"}, "[8]": {"biological_target": "Histone-lysine N-methyltransferase EZH2 (Mus musculus) (UniProt Q61188)", "assay": "Inhibition of EZH2 in mouse B16-F1 migrating cells assessed as fold change in H3K27me3-buffered regulated Enox1-mRNA expression at 3 uM measured by ChIP-seq analysis relative to control cells"}, "[9]": {"biological_target": "Histone-lysine N-methyltransferase EZH2 (Mus musculus) (UniProt Q61188)", "assay": "Inhibition of EZH2 in mouse B16-F1 migrating cells assessed as fold change in H3K27me3-buffered regulated Gm44386-mRNA expression at 3 uM measured by ChIP-seq analysis relative to control cells"}, "[10]": {"biological_target": "T1, RNA polymerase II (Mus musculus) (UniProt P08775+Q8CFI7+P97760+A0A3Q4L2S8+Q80UW8+P61219+P62488+Q923G2+P60898+O08740+Q63871+P62876)", "assay": "Inhibition of RNA polymerase II in mouse B16-F1 migrating cells assessed as fold change in Fermt2-RNA stability at 0.1 mM measured by ChIP-seq analysis relative to control cells"}, "[11]": {"biological_target": "T1, RNA polymerase II (Mus musculus)", "assay": "Inhibition of RNA polymerase II in mouse B16-F1 migrating cells assessed as fold change in Cacybp-RNA stability at 0.1 mM measured by ChIP-seq analysis relative to control cells"}, "[12]": {"biological_target": "T1, RNA polymerase II (Mus musculus)", "assay": "Inhibition of RNA polymerase II in mouse B16-F1 migrating cells assessed as fold change in Morc2a-RNA stability at 0.1 mM measured by ChIP-seq analysis relative to control cells"}, "[13]": {"biological_target": "T1, RNA polymerase II (Mus musculus)", "assay": "Inhibition of RNA polymerase II in mouse B16-F1 migrating cells assessed as fold change in Rpl32-RNA stability at 0.1 mM measured by ChIP-seq analysis relative to control cells"}, "[14]": {"biological_target": "T1, RNA polymerase II (Mus musculus)", "assay": "Inhibition of RNA polymerase II in mouse B16-F1 migrating cells assessed as fold change in Gys1-RNA stability at 0.1 mM measured by ChIP-seq analysis relative to control cells"}, "[15]": {"biological_target": "T1, RNA polymerase II (Mus musculus)", "assay": "Inhibition of RNA polymerase II in mouse B16-F1 migrating cells assessed as fold change in 0610010F05Rik-RNA stability at 0.1 mM measured by ChIP-seq analysis relative to control cells"}, "[16]": {"biological_target": "T1, RNA polymerase II (Mus musculus)", "assay": "Inhibition of RNA polymerase II in mouse B16-F1 migrating cells assessed as fold change in Bnip3-RNA stability at 0.1 mM measured by ChIP-seq analysis relative to control cells"}, "[17]": {"biological_target": "T1, RNA polymerase II (Mus musculus)", "assay": "Inhibition of RNA polymerase II in mouse B16-F1 migrating cells assessed as fold change in Larp7-RNA stability at 0.1 mM measured by ChIP-seq analysis relative to control cells"}, "[18]": {"biological_target": "T1, RNA polymerase II (Mus musculus)", "assay": "Inhibition of RNA polymerase II in mouse B16-F1 migrating cells assessed as fold change in Cdc25a-RNA stability at 0.1 mM measured by ChIP-seq analysis relative to control cells"}, "[19]": {"biological_target": "T1, RNA polymerase II (Mus musculus)", "assay": "Inhibition of RNA polymerase II in mouse B16-F1 migrating cells assessed as fold change in Atad5-RNA stability at 0.1 mM measured by ChIP-seq analysis relative to control cells"}, "[20]": {"biological_target": "T1, RNA polymerase II (Mus musculus)", "assay": "Inhibition of RNA polymerase II in mouse B16-F1 migrating cells assessed as fold change in Gk-RNA stability at 0.1 mM measured by ChIP-seq analysis relative to control cells"}, "[21]": {"biological_target": "T1, RNA polymerase II (Mus musculus)", "assay": "Inhibition of RNA polymerase II in mouse B16-F1 migrating cells assessed as fold change in Smarca5-RNA stability at 0.1 mM measured by ChIP-seq analysis relative to control cells"}, "[22]": {"biological_target": "T1, RNA polymerase II (Mus musculus)", "assay": "Inhibition of RNA polymerase II in mouse B16-F1 migrating cells assessed as fold change in Tmem30a-RNA stability at 0.1 mM measured by ChIP-seq analysis relative to control cells"}, "[23]": {"biological_target": "T1, RNA polymerase II (Mus musculus)", "assay": "Inhibition of RNA polymerase II in mouse B16-F1 migrating cells assessed as fold change in Ccnf-RNA stability at 0.1 mM measured by ChIP-seq analysis relative to control cells"}, "[24]": {"biological_target": "T1, RNA polymerase II (Mus musculus)", "assay": "Inhibition of RNA polymerase II in mouse B16-F1 migrating cells assessed as fold change in Zfp654-RNA stability at 0.1 mM measured by ChIP-seq analysis relative to control cells"}, "[25]": {"biological_target": "T1, RNA polymerase II (Mus musculus)", "assay": "Inhibition of RNA polymerase II in mouse B16-F1 migrating cells assessed as fold change in Cdc42ep5-RNA stability at 0.1 mM measured by ChIP-seq analysis relative to control cells"}, "[26]": {"biological_target": "T1, RNA polymerase II (Mus musculus)", "assay": "Inhibition of RNA polymerase II in mouse B16-F1 migrating cells assessed as fold change in Ska2-RNA stability at 0.1 mM measured by ChIP-seq analysis relative to control cells"}, "[27]": {"biological_target": "T1, RNA polymerase II (Mus musculus)", "assay": "Inhibition of RNA polymerase II in mouse B16-F1 migrating cells assessed as fold change in Tmed5-RNA stability at 0.1 mM measured by ChIP-seq analysis relative to control cells"}, "[28]": {"biological_target": "T1, RNA polymerase II (Mus musculus)", "assay": "Inhibition of RNA polymerase II in mouse B16-F1 migrating cells assessed as fold change in 4930447F24Rik-RNA stability at 0.1 mM measured by ChIP-seq analysis relative to control cells"}, "[29]": {"biological_target": "T1, RNA polymerase II (Mus musculus)", "assay": "Inhibition of RNA polymerase II in mouse B16-F1 migrating cells assessed as fold change in Sppl2a-RNA stability at 0.1 mM measured by ChIP-seq analysis relative to control cells"}, "[30]": {"biological_target": "T1, RNA polymerase II (Mus musculus)", "assay": "Inhibition of RNA polymerase II in mouse B16-F1 migrating cells assessed as fold change in Slc35a3-RNA stability at 0.1 mM measured by ChIP-seq analysis relative to control cells"}}, "note": "This continues a long series; more values of the same kind are listed elsewhere."}
{"smiles": "CCCc1cc(C)[nH]c(=O)c1CNC(=O)c1cc(-c2ccnc(N3CCN(C)CC3)c2)cc2c1cnn2C(C)C", "values": [{"measurement": "log2FC", "setting": "[1]", "result": -0.46}, {"measurement": "log2FC", "setting": "[2]", "result": -0.4}, {"measurement": "log2FC", "setting": "[3]", "result": -0.68}, {"measurement": "log2FC", "setting": "[4]", "result": -0.48}, {"measurement": "log2FC", "setting": "[5]", "result": 0.6}, {"measurement": "log2FC", "setting": "[6]", "result": -0.53}, {"measurement": "log2FC", "setting": "[7]", "result": -0.42}, {"measurement": "log2FC", "setting": "[8]", "result": -0.84}, {"measurement": "log2FC", "setting": "[9]", "result": 0.68}]}
{"smiles": "OC[C@H]1O[C@@H](n2cnc3cc(Cl)c(Cl)cc32)[C@H](O)[C@@H]1O", "values": [{"measurement": "log2FC", "setting": "[10]", "result": -0.38}, {"measurement": "log2FC", "setting": "[11]", "result": -0.64}, {"measurement": "log2FC", "setting": "[12]", "result": -0.42}, {"measurement": "log2FC", "setting": "[13]", "result": 0.47}, {"measurement": "log2FC", "setting": "[14]", "result": 0.84}, {"measurement": "log2FC", "setting": "[15]", "result": -0.46}, {"measurement": "log2FC", "setting": "[16]", "result": 0.95}, {"measurement": "log2FC", "setting": "[17]", "result": -0.46}, {"measurement": "log2FC", "setting": "[18]", "result": -0.6}, {"measurement": "log2FC", "setting": "[19]", "result": -0.92}, {"measurement": "log2FC", "setting": "[20]", "result": -0.65}, {"measurement": "log2FC", "setting": "[21]", "result": -0.92}, {"measurement": "log2FC", "setting": "[22]", "result": -0.72}, {"measurement": "log2FC", "setting": "[23]", "result": -0.6}, {"measurement": "log2FC", "setting": "[24]", "result": -0.58}, {"measurement": "log2FC", "setting": "[25]", "result": 0.65}, {"measurement": "log2FC", "setting": "[26]", "result": -0.77}, {"measurement": "log2FC", "setting": "[27]", "result": -1.1}, {"measurement": "log2FC", "setting": "[28]", "result": 1.38}, {"measurement": "log2FC", "setting": "[29]", "result": -0.51}, {"measurement": "log2FC", "setting": "[30]", "result": -0.53}]}
